This note sets out measurements from article PMC8967906.

No constants are given. Whether binding was seen depends on the method and setting. In cells and extracts the contact can be indirect. A yes stands for co-enrichment or nearness to the bait. Other partners may have been found.

In this assay the target is T1, TRIM46 (human (endogenous in H358)) (UniProt Q7Z4K8).
T1 sequence: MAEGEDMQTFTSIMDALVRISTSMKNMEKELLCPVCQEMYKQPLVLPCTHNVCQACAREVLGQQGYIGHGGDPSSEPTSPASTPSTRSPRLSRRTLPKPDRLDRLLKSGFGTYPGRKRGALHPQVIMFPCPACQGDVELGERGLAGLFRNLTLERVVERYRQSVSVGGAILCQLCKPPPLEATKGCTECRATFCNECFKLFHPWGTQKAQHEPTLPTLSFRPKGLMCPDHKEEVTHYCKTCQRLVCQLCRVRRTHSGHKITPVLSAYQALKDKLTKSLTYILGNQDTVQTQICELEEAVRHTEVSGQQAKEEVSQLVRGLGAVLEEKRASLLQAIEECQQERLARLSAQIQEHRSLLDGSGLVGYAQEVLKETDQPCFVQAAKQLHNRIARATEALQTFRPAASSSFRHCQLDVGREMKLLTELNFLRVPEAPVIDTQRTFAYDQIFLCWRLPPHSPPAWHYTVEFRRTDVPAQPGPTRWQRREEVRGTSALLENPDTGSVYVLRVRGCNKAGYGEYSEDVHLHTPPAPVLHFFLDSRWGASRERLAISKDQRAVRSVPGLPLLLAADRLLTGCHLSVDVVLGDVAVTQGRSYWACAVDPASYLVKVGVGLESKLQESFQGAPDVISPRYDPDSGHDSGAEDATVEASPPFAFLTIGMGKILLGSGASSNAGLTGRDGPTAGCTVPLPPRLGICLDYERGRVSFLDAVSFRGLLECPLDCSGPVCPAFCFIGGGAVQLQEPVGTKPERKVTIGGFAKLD
Briefly: affinity purification with mass spectrometry; IP and mass spectrometry to analyze TRIM46 binding proteins; cells and conditions not told in the text shown.

B1: pleckstrin homology domain leucine-rich repeat protein phosphatase 2 (protein, UniProt Q6ZVD8 1-1323)
chain: MKRNGSRNCLNRRSRFGSRERDWLREDVKRGCVYLYGADTTTATTTTTTSSSSSSSSSSSDLHLVLCTVETPASEICAGEGRESLYLQLHGDLVRRLEPTERPLQIVYDYLSRLGFDDPVRIQEEATNPDLGCMIRFYGEKPCHMDRLDRILLSGIYNVRKGKTQLHKWAERLVVLCGTCLIVSSVKDCQTGKMHILPLVGGKIEEVKRRQYSLAFSSAGAQAQTYHVSFETLAEYQRWQRQASKVVSQRISTVDLSCYSLEEVPEHLFYSQDITYLNLRHNFMQLERPGGLDTLYKFSQLKGLNLSHNKLGLFPILLCEISTLTELNLSCNGFHDLPSQIGNLLNLQTLCLDGNFLTTLPEELGNLQQLSSLGISFNNFSQIPEVYEKLTMLDRVVMAGNCLEVLNLGVLNRMNHIKHVDLRMNHLKTMVIENLEGNKHITHVDLRDNRLTDLDLSSLCSLEQLHCGRNQLRELTLSGFSLRTLYASSNRLTAVNVYPVPSLLTFLDLSRNLLECVPDWACEAKKIEVLDVSYNLLTEVPVRILSSLSLRKLMLGHNHVQNLPTLVEHIPLEVLDLQHNALTRLPDTLFSKALNLRYLNASANSLESLPSACTGEESLSMLQLLYLTNNLLTDQCIPVLVGHLHLRILHLANNQLQTFPASKLNKLEQLEELNLSGNKLKTIPTTIANCKRLHTLVAHSNNISIFPEILQLPQIQFVDLSCNDLTEILIPEALPATLQDLDLTGNTNLVLEHKTLDIFSHITTLKIDQKPLPTTDSTVTSTFWSHGLAEMAGQRNKLCVSALAMDSFAEGVGAVYGMFDGDRNEELPRLLQCTMADVLLEEVQQSTNDTVFMANTFLVSHRKLGMAGQKLGSSALLCYIRPDTADPASSFSLTVANVGTCQAVLCRGGKPVPLSKVFSLEQDPEEAQRVKDQKAIITEDNKVNGVTCCTRMLGCTYLYPWILPKPHISSTPLTIQDELLILGNKALWEHLSYTEAVNAVRHVQDPLAAAKKLCTLAQSYGCQDNVGAMVVYLNIGEEGCTCEMNGLTLPGPVGFASTTTIKDAPKPATPSSSSGIASEFSSEMSTSEVSSEVGSTASDEHNAGGLDTALLPRPERRCSLHPTPTSGLFQRQPSSATFSSNQSDNGLDSDDDQPVEGVITNGSKVEVEVDIHCCRGRDLENSPPLIESSPTLCSEEHARGSCFGIRRQNSVNSGMLLPMSKDRMELQKSPSTSCLYGKKLSNGSIVPLEDSLNLIEVATEVPKRKTGYFAAPTQMEPEDQFVVPHDLEEEVKEQMKQHQDSRLEPEPHEEDRTEPPEEFDTAL
As to B1, the binding entry is reported as “binds”.
